Reference: patent US20160024558

Molecular target: T1, 9° North DNA polymerase, polymerase-inactive construct Y538H, D540I, T541Y (UniProt Q56366)
T1 sequence (looked up, limits assumed): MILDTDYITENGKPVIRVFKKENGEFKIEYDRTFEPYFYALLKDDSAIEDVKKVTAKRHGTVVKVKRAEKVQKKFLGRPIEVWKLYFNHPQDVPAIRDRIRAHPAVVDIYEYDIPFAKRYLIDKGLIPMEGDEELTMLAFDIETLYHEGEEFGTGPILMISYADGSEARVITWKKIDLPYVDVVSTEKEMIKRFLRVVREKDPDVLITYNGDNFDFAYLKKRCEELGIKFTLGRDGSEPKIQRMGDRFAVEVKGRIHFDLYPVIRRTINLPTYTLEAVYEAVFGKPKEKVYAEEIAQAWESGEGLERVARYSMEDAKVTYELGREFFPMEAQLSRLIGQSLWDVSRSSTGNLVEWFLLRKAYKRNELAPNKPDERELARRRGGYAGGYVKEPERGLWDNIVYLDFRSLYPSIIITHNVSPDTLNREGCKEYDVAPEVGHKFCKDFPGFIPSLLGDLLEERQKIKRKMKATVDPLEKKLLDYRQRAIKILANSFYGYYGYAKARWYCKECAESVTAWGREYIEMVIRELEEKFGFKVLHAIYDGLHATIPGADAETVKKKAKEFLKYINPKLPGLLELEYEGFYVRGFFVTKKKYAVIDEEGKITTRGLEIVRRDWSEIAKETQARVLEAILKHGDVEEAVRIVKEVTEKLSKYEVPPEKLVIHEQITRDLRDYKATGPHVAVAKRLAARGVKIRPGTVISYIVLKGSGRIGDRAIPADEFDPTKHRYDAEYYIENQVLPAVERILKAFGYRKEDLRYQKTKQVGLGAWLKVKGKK
Assay: inhibition of the protein
Conditions: dideoxyU (so in the source) at position 25 of the template strand; concentration-dependent inhibition of 120 nM active 9° North strand displacement, 55 C; purified recombinant protein

TCGAGCACGCGGCACTTATTGCAAUAGTGCCGAGTCAGCGCGCTGACTCGGC / GCAATAAGTGCCGCGTGCTCGA [FAM U-template / quencher duplex (FIG. 3)]
activity on this sequence: active

Where a protein sequence is shown, tags need not be part of it.
